Drawing on PubChem BioAssay AID330 (DTP/NCI, 2004), this text covers T/C and survivor count for 27 molecules.

The list is a part of this screen's results and no random one: it is rich in T/C values a quarter to a half above the control, in often repeated tests (any T/C) and in doses without a T/C. Other doses and runs of a compound stand elsewhere. T/C is the treated group as % of the vehicle group. Some entries give survivors of the animals treated and no T/C: the source files T/C as zero there, which appears to mark a toxic dose or a test without result, not a measured value. Some survivor counts are full or nearly so, which does not show that the dose was tolerated: survival well below the control is almost never listed, so the zero probably covers shortened survival too. Survivors were counted at the toxicity check, usually on the fifth day, unless a day is given; later deaths do not show. Schedules are NCI's codes, read here as Q, the interval in days (D) or hours (H), X, the number of doses. Some entries hold several experiments; the values are given in rising order. Where survival is the endpoint, this PubChem deposit counts one and a half times the control or more as active, and values a quarter to a half above the control carry no call in these data; other NCI protocols may use other cut-offs.

For the assay, the system named is P388 leukemia ip, CD2F1 mice, survival T/C. In words: NCI In Vivo Anticancer Drug Screen. Data for tumor model P388 Leukemia (intraperitoneal) in CD2F1 (CDF1) mice. The settings on record: T/C endpoint: median survival time, higher T/C = longer survival.
Setting [1] is: dose: 240.0 mg/kg/injection, schedule: Q01DX005 (ip), vehicle: saline with Tween-80.
[2] abbreviates: dose: 25.0 mg/kg/injection, schedule: Q01DX009 (ip), vehicle: saline with Tween-80.
The mark [3] stands for this setting: dose: 50.0 mg/kg/injection, schedule: Q01DX009 (ip), vehicle: saline with Tween-80.
[4] abbreviates: dose: 1.25 mg/kg/injection, schedule: Q01DX009 (ip), vehicle: saline with Tween-80.
The mark [5] stands for this setting: dose: 200.0 mg/kg/injection, schedule: Q01DX009 (ip), vehicle: Klucel (hydroxypropylcellulose) (HPC).
Setting [6] is: dose: 100.0 mg/kg/injection, schedule: Q01DX005 (ip), vehicle: saline with Tween-80.
Setting [7] is: dose: 200.0 mg/kg/injection, schedule: Q01DX005 (ip), vehicle: saline with Tween-80.
The mark [8] stands for this setting: dose: 100.0 mg/kg/injection, schedule: Q01DX009 (ip), vehicle: Klucel (hydroxypropylcellulose) (HPC).
The mark [9] stands for this setting: dose: 100.0 mg/kg/injection, schedule: Q01DX009 (ip), vehicle: saline with Tween-80.

Regarding `C=COC(=O)N[C@H]1CCc2cc(OC)c(OC)c(OC)c2-c2ccc(SC)c(=O)cc21`, the T/C is 125 and 127 % of control (dose: 0.75 mg/kg/injection, schedule: Q01DX009 (ip), vehicle: Klucel (hydroxypropylcellulose) (HPC)); 128 and 141 % of control (dose: 1.5 mg/kg/injection, schedule: Q01DX009 (ip), vehicle: Klucel (hydroxypropylcellulose) (HPC)). The survivor count (dose: 6.0 mg/kg/injection, schedule: Q01DX009 (ip), vehicle: Klucel (hydroxypropylcellulose) (HPC)) is 6 of 6.
With `NC1C[S][Sn][O]C1=O` (configuration not stated), the survivor count (dose: 400.0 mg/kg/injection, schedule: Q04DX003 (ip), vehicle: saline with Tween-80) is 1 of 6.
Turning to `CC1(C#N)N=C(c2ccccc2)c2ccccc2N1C(=O)Oc1ccccc1` (configuration not stated), under setting [1], the survivor count is given as 6 of 6.
As for `COc1cccc2c1C(=O)c1c(O)c3c(c(O)c1C2=O)CC(O)(C(=O)COc1ccccc1)CC3OC1CC(NC(=O)C(F)(F)F)C(O)C(C)O1` (configuration not stated), the T/C runs as follows: (dose: 12.5 mg/kg/injection, schedule: Q01DX009 (ip), vehicle: other) 134 % of control; (dose: 25.0 mg/kg/injection, schedule: Q01DX009 (ip), vehicle: other) 132 % of control.
As for `S=C1N=C2c3ccccc3C2C(=S)S1` (configuration not stated), the survivor count runs as follows: under setting [2], 6 of 6; under setting [3], 6 of 6.
In the case of `CCN(CC)CCCSCCCNc1cc(OC)cc2cccnc12`, the survivor count reads like this: (dose: 100.0 mg/kg/injection, schedule: Q01DX005 (ip), vehicle: saline) 1 of 5; (dose: 200.0 mg/kg/injection, schedule: Q01DX005 (ip), vehicle: saline) 0 of 5.
Consider `c1ccc2sc(NCCSSCCNc3nc4ccccc4s3)nc2c1`, for which, for the setting “dose: 100.0 mg/kg/injection, schedule: Q01DX009 (ip), vehicle: other”, the survivor count is given as 5 of 6.
For `Cc1ccc(/C=C2/N=C([Se])N(C)C2=O)cc1`, the survivor count (dose: 60.0 mg/kg/injection, schedule: Q01DX005 (ip), vehicle: saline with Tween-80) is 5 of 6 and the survivor count under setting [1] was 3 of 6.
Consider `COC[C@H]1OC(=O)c2coc3c2[C@@]1(C)C1=C(C3=O)[C@@H]2CCC(=O)[C@@]2(C)C[C@H]1OC(C)=O`, for which the T/C was 134 % of control (dose: 0.63 mg/kg/injection, schedule: Q01DX009 (ip), vehicle: saline with Tween-80) and 130 % of control under setting [4]. The survivor count is 6 of 6 under setting [4]; 3 of 6 (dose: 5.0 mg/kg/injection, schedule: Q01DX009 (ip), vehicle: saline with Tween-80); 2 of 6 (dose: 10.0 mg/kg/injection, schedule: Q01DX009 (ip), vehicle: saline with Tween-80).
As for `Cc1ccc(NC(=O)NCc2ccncc2)cc1NC(=O)NCc1ccncc1`, under setting [5], the survivor count is listed as 2 of 6.
For `CC(C)C12OC1C1OC13C1(C)CCC4=C(COC4=O)C1CC1OC13C2=O` (configuration not stated), where the note is “dose: 10.0 mg/kg/injection, schedule: Q01DX005 (ip), vehicle: saline + alcohol”, the T/C is 126 % of control.
Turning to `c1ccc2c(NCCCCCCCCCCCCCCCCNc3c4ccccc4nc4ccccc34)c3ccccc3nc2c1`, the survivor count (dose: 20.0 mg/kg/injection, schedule: Q01DX009 (ip), vehicle: other) was 3 of 6.
`CC1=C2C(=CC(C)(C)[C@@H]2O)C(=O)[C@](C)(O)C12CC2`: the T/C (dose: 0.18 mg/kg/injection, schedule: Q01DX010 (ip), vehicle: saline) is 125 % of control.
For `CN1C(=O)C(O)(C2=C3OCOC3=CC(=O)C2=O)c2ccccc21` (configuration not stated), the survivor count (dose: 50.0 mg/kg/injection, schedule: Q01DX005 (ip), vehicle: saline with Tween-80) was 3 of 6; the survivor count under setting [6] is 0 of 6; the survivor count under setting [7] is on record as 0 of 6.
For the molecule `CCCCN=NN/C=C/C(C)(C)C`, the T/C was 128 % of control under setting [6] and 130 % of control under setting [7].
For the molecule `CC(C)(c1ccccc1)[N+](C)(C)C`, under “dose: 40.0 mg/kg/injection, schedule: Q04DX003 (ip), vehicle: saline”, the survivor count is on record as 1 of 6.
Turning to `O=C(NCN1CCCCC1)c1ccccc1`, the T/C under setting [6] is 125 % of control. Moreover, the survivor count under setting [7] is reported as 2 of 5.
For the molecule `COc1cccc2c1C(=O)c1c(O)c3c(c(O)c1C2=O)C[C@@](O)(/C(C)=N/NC(=O)c1ccccc1)C[C@@H]3OC1CC(N(C)C)C(O)C(C)O1` (some centres not stated), the T/C is, setting by setting: (dose: 0.78 mg/kg/injection, schedule: Q01DX009 (ip), vehicle: water) 132 and 146 % of control; (dose: 1.56 mg/kg/injection, schedule: Q01DX009 (ip), vehicle: water) 134 % of control; (dose: 3.13 mg/kg/injection, schedule: Q01DX009 (ip), vehicle: water) 145 % of control. Under “dose: 12.5 mg/kg/injection, schedule: Q01DX009 (ip), vehicle: water”, the survivor count is 3 of 3 and 6 of 6.
As for `Cc1cccc(N2CCN(c3ccc4nonc4c3[N+](=O)[O-])CC2)c1`, the survivor count (dose: 50.0 mg/kg/injection, schedule: Q01DX009 (ip), vehicle: suspension in saline) was 6 of 6.
Regarding `CCOc1ccc(OCC)c(C(O)C(C)NC(C)C)c1` (configuration not stated), the survivor count runs as follows: (dose: 50.0 mg/kg/injection, schedule: Q01DX009 (ip), vehicle: Klucel (hydroxypropylcellulose) (HPC)) 3 of 6; under setting [8], 0 of 6; under setting [5], 0 of 6.
For the molecule `CC1=CC(=O)C(O)C2(C)C1CC1OC(=O)C(O)C3(O)C4(C)OCC13C2C(O)C4O` (configuration not stated), the survivor count is recorded as 4 of 6 (dose: 3.0 mg/kg/injection, schedule: Q01DX009 (ip), vehicle: saline + alcohol); 0 of 6 (dose: 6.0 mg/kg/injection, schedule: Q01DX009 (ip), vehicle: saline + alcohol); 0 of 6 (dose: 12.0 mg/kg/injection, schedule: Q01DX009 (ip), vehicle: saline + alcohol).
As to `Nc1ccc(C(OC(=O)c2cc3ccccc3c(Cc3c(O)c(C(=O)OC(c4ccc(N)cc4)(c4ccc(N)cc4)c4ccc(N)cc4)cc4ccccc34)c2O)(c2ccc(N)cc2)c2ccc(N)cc2)cc1`, the T/C (dose: 12.5 mg/kg/injection, schedule: Q01DX009 (ip), vehicle: saline with Tween-80) is 140 % of control. Moreover, the survivor count runs as follows: under setting [2], 6 of 6; under setting [3], 2 of 6; under setting [9], 1 of 6; (dose: 200.0 mg/kg/injection, schedule: Q01DX009 (ip), vehicle: saline with Tween-80) 0 of 6.
For `CC(C)C(OCc1ccccc1)C(=O)O` (configuration not stated), the survivor count (dose: 400.0 mg/kg/injection, schedule: Q01DX009 (ip), vehicle: alcohol) is 3 of 6.
As to `CS(=O)(=O)[O][Sn]([CH3])([CH3])[O]S(C)(=O)=O`, the survivor count is on record as 0 of 6 (dose: 100.0 mg/kg/injection, schedule: Q04DX003 (ip), vehicle: saline); 0 of 6 (dose: 200.0 mg/kg/injection, schedule: Q04DX003 (ip), vehicle: saline); 0 of 6 (dose: 400.0 mg/kg/injection, schedule: Q04DX003 (ip), vehicle: saline).
Regarding `CCC(=O)Oc1ccc(C2N(Cc3ccc(N(C)C)cc3)CCCN2Cc2ccc(N(C)C)cc2)cc1`, under setting [9], the survivor count was 5 of 6.
For the molecule `COc1cc2cc[n+]3c(c2cc1OC)-c1c2cc(OC)c(OC)cc2cc[n+]1CC3`, the survivor count under setting [3] is 0 of 6.
Turning to `CC(C)N(C)N=Nc1ccc(C(N)=O)cc1`, the T/C was 129 % of control under setting [8]; 127 and 145 % of control under setting [5]. Besides, the survivor count reads like this: (dose: 300.0 mg/kg/injection, schedule: Q01DX009 (ip), vehicle: Klucel (hydroxypropylcellulose) (HPC)) 4 of 6; (dose: 400.0 mg/kg/injection, schedule: Q01DX009 (ip), vehicle: Klucel (hydroxypropylcellulose) (HPC)) 5 of 6.
